Measurements taken from the supplement of paper PMC10373366.
Where “and” joins values, the source holds several entries; their conditions need not be identical. Equal values may be shown once. Where a name gives a salt, the structure may show the parent alone. This is one part of the list. Most values come without repeats; read them as rough.

test system: A2780; experiment: cell growth inhibition ratio vs untreated control (CCK8); higher = stronger inhibition of cell viability; conditions: 10 µM; 48 h
Procedure: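 Natural product library (Topscience) screened at 10 µM final concentration for 48 h on ovarian cancer A2780 cells and patient-derived ovarian cancer cells (PDC) in 96-well plates; viability read by CCK8 and reported as inhibition ratio (%) relative to untreated control. Single-dose primary screen.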

Row | SMILES | cell growth inhibition ratio
1 | CCC(=O)O[C@H]1CC[C@H]2[C@@H]3CCC4=CC(=O)CC[C@]4(C)[C@H]3CC[C@]12C [Testosterone propionate] | 20.6%
2 | CNCC(O)c1ccc(O)cc1 (stereo not given) [Synephrine] | 16%
3 | CC(C)=CCC[C@@](C)(O)[C@H]1CC[C@]2(C)[C@@H]1[C@H](O)C[C@@H]1[C@@]3(C)CC[C@H](O)C(C)(C)[C@@H]3[C@@H](O[C@@H]3O[C@H](CO)[C@@H](O)[C@H](O)[C@H]3O)C[C@]12C [(20R)-Ginsenoside Rh1] | 12%
4 | COc1cc(OC)c(OC)cc1C=O [Asarylaldehyde] | 0.883%
5 | O=C1C=CC[C@@H]2[C@H]3CCC[N+]4([O-])CCC[C@@H](CN12)[C@@H]34 (stereo not given in full) [Oxysophocarpine] | 2.24%
6 | CN(C)[C@@H]1C(=O)C(C(N)=O)=C(O)[C@@]2(O)C(=O)C3=C(O)c4c(O)cccc4[C@@](C)(O)[C@H]3C[C@@H]12 [Tetracycline hydrochloride] | -0.968%
7 | O=C1C[C@@H]2OCC=C3CN4CC[C@]56c7ccccc7N1[C@H]5[C@H]2[C@H]3C[C@H]46 [Strychnine] | 11.6%
8 | CN(C)[C@@H]1C(=O)C(C(N)=O)=C(O)[C@@]2(O)C(=O)C3=C(O)c4c(O)ccc(Cl)c4[C@@](C)(O)[C@H]3C[C@@H]12 [Chlortetracycline hydrochloride] | 26.2%
9 | COc1cc2c3c(c1OC)-c1ccccc1C[C@H]3N(C)CC2 [Nuciferine] | 7.82%
10 | COc1cc([C@@H]2c3cc4c(cc3[C@H](O)[C@H]3COC(=O)[C@H]23)OCO4)cc(OC)c1OC [Podophyllotoxin] | 88.3%
11 | C#C[C@]1(O)CC[C@H]2[C@@H]3CCC4=CC(=O)CC[C@]4(C)[C@H]3CC[C@@]21C [Ethisterone] | 2.44%
12 | O=c1ccc2ccc3occc3c2o1 [Isopsoralen] | 9.39%
13 | CC[C@]12C=CCN3CC[C@]4(C(=C(C(=O)OC)C1)Nc1ccccc14)[C@@H]32 [Tabersonine] | 29.3%
14 | COc1ccc2c(c1OC)CN1CCc3cc4c(cc3C1C2)OCO4 (stereo not given) [Tetrahydroberberine THB] | 0.484%
15 | CCC1=C[C@@H]2CN3CCc4c([nH]c5ccccc45)[C@@](C(=O)OC)(C2)[C@@H]13 [Catharanthine tartrate] | 7.54%
16 | CCC1(O)C(=O)OCc2c1cc1n(c2=O)Cc2cc3ccccc3nc2-1 (single isomer, unassigned; (+)) [(+)-Camptothecin] | 86.3%
17 | C[C@@H]1O[C@@H](O[C@H]2C[C@@H](O)[C@]3(CO)[C@H]4[C@H](O)C[C@]5(C)[C@@H](C6=CC(=O)OC6)CC[C@]5(O)[C@@H]4CC[C@]3(O)C2)[C@H](O)[C@H](O)[C@H]1O [Ouabain octahydrate] | 87.7%
18 | C=CCCCCCCCCC(=O)O[C@H]1CC[C@H]2[C@@H]3CCC4=CC(=O)C=C[C@]4(C)[C@H]3CC[C@]12C [Boldenone Undecylenate] | 5.82%
19 | CC(C)=CCC[C@](C)(O)[C@H]1CC[C@]2(C)[C@@H]1[C@H](O)C[C@@H]1[C@@]3(C)CC[C@H](O[C@@H]4O[C@H](CO)[C@@H](O)[C@H](O)[C@H]4O)C(C)(C)[C@@H]3CC[C@]12C [Ginsenoside Rh2] | -6.86% and 16.2%
20 | CCC(=O)O[C@H]1CC[C@H]2[C@@H]3CC[C@H]4CC(=O)[C@H](C)C[C@]4(C)[C@H]3CC[C@]12C [Drostanolone Propionate] | 38.2%

Row | SMILES | cell growth inhibition ratio
21 | CC(=O)O[C@H]1C(=O)[C@@]2(C)[C@H]([C@H](OC(=O)c3ccccc3)[C@]3(O)C[C@H](O)C(C)=C1C3(C)C)[C@]1(OC(C)=O)CO[C@@H]1C[C@@H]2O [Baccatin III] | 41.4%
22 | CCN1C[C@]2(OC(=O)c3ccccc3NC(C)=O)CC[C@H](OC)[C@@]34[C@@H]2C[C@@H]([C@@H]13)[C@@]1(O)C[C@H](OC)[C@H]2C[C@@H]4[C@]1(O)[C@H]2OC [Lappaconitine] | 7.93%
23 | NCCc1ccc(O)cc1 [Tyramine] | 79.1%
24 | C[C@]12CC[C@H](O)CC1=CC[C@@H]1[C@@H]2CC[C@]2(C)C(=O)CC[C@@H]12 [Dehydroepiandrosterone] | 3.82%
25 | CC(C)=CCC[C@]1(C)C=Cc2c(O)c3c(c(CC=C(C)C)c2O1)O[C@]12C(=C[C@@H]4C[C@H]1C(C)(C)O[C@@]2(C/C=C(/C)C(=O)O)C4=O)C3=O [Gambogic Acid] | 7.37%
26 | C[C@]12C=CC(=O)C=C1CC[C@@H]1[C@@H]2CC[C@@]2(C)[C@H]1CC[C@]2(C)O [Methandrostenolone] | 2.28%
27 | CCCCCc1cc(O)cc(O)c1 [Olivetol] | -2.67%
28 | CC(C)[C@]12O[C@H]1[C@@H]1O[C@]13[C@]1(O[C@H]1C[C@H]1C4=C(CC[C@@]13C)C(=O)OC4)[C@@H]2O [Triptolide (PG490)] | 83.2%
29 | C/C=C/c1cc(OC)c(OC)cc1OC [alpha-Asarone] | 8.99%
30 | CN(C)CCc1ccc(O)cc1 [Hordenine] | -5.76%
31 | O=c1ccc2cc(O[C@@H]3O[C@H](CO)[C@@H](O)[C@H](O)[C@H]3O)c(O)cc2o1 [Esculin] | -0.456%
32 | COC(=O)C1=CCCN(C)C1 [Arecoline HBr] | -1.93%
33 | COc1ccc(CC2NCCc3cc(OC)c(OC)cc32)cc1OC (stereo not given) [Tetrahydropapaverine hydrochloride] | 12.6%
34 | COc1cc(C2OCC3C(c4cc(OC)c(O[C@@H]5O[C@H](CO)[C@@H](O)[C@H](O)[C@H]5O)c(OC)c4)OCC23)cc(OC)c1O[C@H]1O[C@@H](CO)[C@H](O)[C@@H](O)[C@@H]1O (stereo not given in full) [Eleutheroside E] | -1.04%
35 | CC1C=CC=CCCC=CC=CC=CC=CC(OC2OC(C)C(O)C(N)C2O)CC2OC(O)(CC(O)C(O)CCC(O)CC(O)CC(O)CC(=O)OC(C)C(C)C1O)CC(O)C2C(=O)O (stereo not given) [Nystatin (Fungicidin)] | 4.33%
36 | CC(=O)OC(C)(C)/C=C/C(=O)[C@](C)(O)[C@H]1[C@H](O)C[C@@]2(C)[C@@H]3CC=C4[C@H](C[C@H](O)C(=O)C4(C)C)[C@]3(C)C(=O)C[C@]12C [Cucurbitacin B] | 89.9%
37 | CN[C@@H]1[C@@H](O)[C@@H](O[C@@H]2[C@@H](O)[C@H](O[C@H]3O[C@H]([C@@H](C)O)[C@@H](O)[C@H](O)[C@H]3N)[C@@H](N)C[C@H]2N)OC[C@]1(C)O [Geneticin (G418 Sulfate)] | 7.08%
38 | N#C/C=C1/C=C[C@@H](O)[C@H](O)[C@H]1O[C@@H]1O[C@H](CO)[C@@H](O)[C@H](O)[C@H]1O [Griffonin] | 11.5%
39 | C=C[C@H]1CN2CC[C@H]1C[C@@H]2[C@@H](O)c1ccnc2ccccc12 [Cinchonine] | 10.5%
40 | CC1=C2C[C@H]3[C@@H](CC=C4C[C@@H](O)CC[C@@]43C)[C@@H]2CC[C@]12O[C@@H]1C[C@H](C)CN[C@H]1[C@H]2C [Cyclopamine] | 9.26%

Ordered by molecular weight (rising): part of the list above.
Row | SMILES | cell growth inhibition ratio
23 | NCCc1ccc(O)cc1 [Tyramine] | 79.1%
37 | CN[C@@H]1[C@@H](O)[C@@H](O[C@@H]2[C@@H](O)[C@H](O[C@H]3O[C@H]([C@@H](C)O)[C@@H](O)[C@H](O)[C@H]3N)[C@@H](N)C[C@H]2N)OC[C@]1(C)O [Geneticin (G418 Sulfate)] | 7.08%
22 | CCN1C[C@]2(OC(=O)c3ccccc3NC(C)=O)CC[C@H](OC)[C@@]34[C@@H]2C[C@@H]([C@@H]13)[C@@]1(O)C[C@H](OC)[C@H]2C[C@@H]4[C@]1(O)[C@H]2OC [Lappaconitine] | 7.93%
